Values quoted from earlier work, collected in patent US20090234270A1, “Therapy and device for treatment of nail infections” (Ondine International, Ltd., priority 2008, published 2009).
At least one compound was matched to its structure with a doubt left.

Test system: onychomycosis
Conditions: oral, twice a day for one week each month over three to four months

CCC(C)n1ncn(-c2ccc(N3CCN(c4ccc(OCC5COC(Cn6cncn6)(c6ccc(Cl)cc6Cl)O5)cc4)CC3)cc2)c1=O (stereo not shown) [itraconazole]
remission: 60-80%
